Test results as given in article PMC3355131.
These are yes or no findings as the source states them, for the method shown. Binding seen in cells or lysates may run through a third protein. Some entries that bind do so weakly or less than the wild type.

Amino acid sequences for entries named in this document (tags omitted).
UniProt A0A8I3P974: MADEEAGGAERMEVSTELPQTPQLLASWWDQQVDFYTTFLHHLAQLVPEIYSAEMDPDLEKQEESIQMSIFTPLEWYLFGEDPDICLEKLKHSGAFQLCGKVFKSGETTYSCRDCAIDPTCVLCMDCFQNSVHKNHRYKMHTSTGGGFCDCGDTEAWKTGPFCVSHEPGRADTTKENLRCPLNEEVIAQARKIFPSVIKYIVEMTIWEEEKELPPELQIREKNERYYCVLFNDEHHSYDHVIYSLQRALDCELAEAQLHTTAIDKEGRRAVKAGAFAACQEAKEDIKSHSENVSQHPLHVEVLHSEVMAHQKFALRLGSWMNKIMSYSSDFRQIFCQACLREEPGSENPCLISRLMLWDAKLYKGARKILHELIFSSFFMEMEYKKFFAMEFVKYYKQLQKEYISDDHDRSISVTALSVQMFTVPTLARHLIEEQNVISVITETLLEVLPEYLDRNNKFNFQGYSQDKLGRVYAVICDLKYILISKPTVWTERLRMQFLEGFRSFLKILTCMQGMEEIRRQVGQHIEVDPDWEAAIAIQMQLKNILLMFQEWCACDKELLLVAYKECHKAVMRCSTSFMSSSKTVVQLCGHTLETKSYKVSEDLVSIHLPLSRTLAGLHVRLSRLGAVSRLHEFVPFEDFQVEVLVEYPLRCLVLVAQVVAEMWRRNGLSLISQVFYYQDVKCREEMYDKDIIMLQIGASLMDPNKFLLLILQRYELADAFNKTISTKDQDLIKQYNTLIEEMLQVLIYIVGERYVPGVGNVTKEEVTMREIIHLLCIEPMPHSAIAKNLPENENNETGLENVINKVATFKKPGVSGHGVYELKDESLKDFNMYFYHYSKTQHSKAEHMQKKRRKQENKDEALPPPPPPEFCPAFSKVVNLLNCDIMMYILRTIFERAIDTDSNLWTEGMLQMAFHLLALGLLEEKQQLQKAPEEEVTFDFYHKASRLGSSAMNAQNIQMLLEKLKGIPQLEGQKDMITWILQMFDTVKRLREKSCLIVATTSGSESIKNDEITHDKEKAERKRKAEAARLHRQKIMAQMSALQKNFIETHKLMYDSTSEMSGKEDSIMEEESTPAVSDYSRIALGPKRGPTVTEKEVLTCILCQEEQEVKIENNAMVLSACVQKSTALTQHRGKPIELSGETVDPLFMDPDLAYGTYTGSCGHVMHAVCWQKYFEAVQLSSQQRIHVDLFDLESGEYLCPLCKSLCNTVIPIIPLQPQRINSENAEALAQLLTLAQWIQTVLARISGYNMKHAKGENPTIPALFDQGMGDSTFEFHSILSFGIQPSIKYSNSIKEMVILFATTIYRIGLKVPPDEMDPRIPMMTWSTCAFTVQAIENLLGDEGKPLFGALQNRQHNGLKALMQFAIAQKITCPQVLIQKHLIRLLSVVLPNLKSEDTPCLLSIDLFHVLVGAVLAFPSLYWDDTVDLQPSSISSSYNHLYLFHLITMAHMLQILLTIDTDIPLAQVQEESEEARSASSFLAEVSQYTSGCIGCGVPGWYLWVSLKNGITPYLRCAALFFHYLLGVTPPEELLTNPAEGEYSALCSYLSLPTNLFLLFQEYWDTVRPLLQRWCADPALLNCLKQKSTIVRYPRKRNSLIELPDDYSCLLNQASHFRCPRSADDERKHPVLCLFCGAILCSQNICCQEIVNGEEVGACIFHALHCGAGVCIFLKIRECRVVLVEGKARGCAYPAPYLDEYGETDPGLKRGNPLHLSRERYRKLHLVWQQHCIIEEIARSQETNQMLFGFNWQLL

Target: Phe-peptide (12-mer N-end rule X-peptide, X = Phe) (Sindbis virus)
Test: pull-down; C-terminally biotinylated X-peptide on streptavidin-sepharose beads (1-1.5 umol peptide per 1 ml beads) mixed with extracts of rat or dog testes; low (75-150 mM) salt; only the target purified

## UBR1 (endogenous, from dog testes) (from UniProt A0A8I3P974 1-1753) (enzyme)
  binding: binds
